PubChem BioAssay AID1259424 – University of Nebraska Medical Center, 2018
Purpose: 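Find knockdowns that reproduce the expression shifts seen after KSR1 loss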 (primary screen). System: human HCT116 colon cancer cells. Knock-down reagent: siRNA pool against human genes, 50 nM. Measurement: 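Log2 levels of six mRNAs (branched-DNA multiplex), adjusted by two reference genes and the non-targeting median, then scored against the average KSR1 knockdown pattern as Pearson r and euclidean distance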. Scale: mean correlation with KSR1 profile and KSR1 correlation: higher = expression change more like KSR1 knockdown; mean distance from KSR1 profile: higher = expression change less like KSR1 knockdown.
The whole screen tested about 14,000 reagents; below is an unselected part. 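Higher correlation or smaller distance means closer resemblance to KSR1 loss; control wells, including KSR1 knockdowns, recur on many plates.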 No sequences are given here. The record does not give: the time to read-out.

target	mean correlation with KSR1 profile	mean distance from KSR1 profile	KSR1 correlation, replicate 1	KSR1 correlation, replicate 2	KSR1 correlation, replicate 3
GTF2A1L	0.607	1.8	0.625	0.752	0.428
SPHK1	0.479	1.26	0.703	-0.403	0.301
DMC1	0.032	2.65	0.0963	0.0642	-0.179
F8A1	-0.0881	2.78	-0.306	0.121	-0.337
ASIC2	-0.456	4.31	-0.51	-0.592	-0.396
CRACR2A	0.045	2.6	-0.0341	-0.0464	-0.0665
KCNMB2	-0.0459	1.63	0.0191	-0.264	0.0781
BCL11B	-0.834	1.88	-0.885	-0.917	-0.799
ISG20L2	0.147	1.89	0.00492	-0.117	0.273
GK	0.0702	2.37	0.212	0.0476	-0.172
METTL5	0.185	1.84	-0.0336	0.168	0.113
ANAPC1	0.0776	1.78	0.0229	-0.074	0.111
PCYOX1L	0.0113	1.85	-0.226	-0.119	-0.0461
GRM8	0.0259	2.68	-0.276	0.0399	0.285
ZBTB7A	0.0179	1.74	0.147	-0.076	0.0177
BAMBI	-0.0928	2.26	0.299	-0.37	-0.142
NLRP2	0.656	1.58	0.583	0.537	0.674
LAPTM4A	-0.496	2.98	-0.632	-0.379	-0.369
RASSF9	0.199	1.83	0.166	0.257	0.417
CALD1	-0.0286	1.59	0.13	-0.249	-0.157
SPZ1	0.393	1.31	0.266	0.447	-0.0429
REM1	0.366	1.31	0.215	0.353	-0.0515
SPA17	-0.456	3.18	-0.259	-0.516	-0.531
VCX2	-0.194	1.74	-0.0748	-0.372	-0.186
TCAF1	-0.337	2.35	-0.278	-0.0739	-0.241
NDNF	0.0585	1.78	0.493	-0.00952	-0.0137
GNAZ	0.755	1.57	0.695	0.866	0.708
SAP130	-0.223	2.06	0.127	-0.443	-0.215
POR	0.07	2.7	0.0814	0.0854	-0.00521
CDC14A	-0.158	1.92	-0.104	-0.074	-0.24
MED15	-0.393	3.62	-0.167	-0.614	-0.386
BTN2A3P	-0.363	2.25	-0.0861	-0.445	-0.53
YES1	-0.203	1.67	0.489	-0.677	-0.37
STIM1	-0.251	2.31	-0.0347	-0.319	-0.241
TBL3	-0.19	3.68	-0.0964	-0.095	-0.261
BCL6B	0.0253	2.46	0.259	0.061	-0.123
ZNF395	0.885	1.07	0.819	0.738	0.866
HPS1	-0.398	2.05	-0.13	-0.616	-0.503
PPA1	-0.185	2.91	-0.311	-0.134	-0.236
MAPK9	0.297	1.33	0.018	0.462	0.134
LYAR	-0.511	2.77	-0.601	-0.505	-0.424
OR7A17	0.776	2.12	0.728	0.827	0.859
SPIN2A	-0.276	3.45	-0.165	-0.33	-0.395
RPS6KA1	0.317	1.61	0.556	0.0409	-0.171
PROM1	-0.132	3.25	0.0362	-0.381	-0.262
PDE6G	-0.701	2.25	-0.573	-0.52	-0.875
CLASP2	0.123	1.14	0.128	-0.122	0.0735
GDPD5	0.152	2.13	-0.0938	0.024	0.31
HEMK1	-0.71	1.99	-0.659	-0.481	-0.486
HERC6	-0.465	2.45	-0.223	-0.508	-0.734
